Results: paper doi:10.1101/2023.11.28.568967
Like-named read-outs stand apart in the source and are kept apart here. These are yes or no findings as the source states them, for the method shown. Binding seen in cells or lysates may run through a third protein. Some binding calls cover weakened binding; strength is not graded here.

Protein sequences, listed by entry. Tags and fused reporters are not part of them. Residues count along the entry.
UniProt O35375, residues 21-931: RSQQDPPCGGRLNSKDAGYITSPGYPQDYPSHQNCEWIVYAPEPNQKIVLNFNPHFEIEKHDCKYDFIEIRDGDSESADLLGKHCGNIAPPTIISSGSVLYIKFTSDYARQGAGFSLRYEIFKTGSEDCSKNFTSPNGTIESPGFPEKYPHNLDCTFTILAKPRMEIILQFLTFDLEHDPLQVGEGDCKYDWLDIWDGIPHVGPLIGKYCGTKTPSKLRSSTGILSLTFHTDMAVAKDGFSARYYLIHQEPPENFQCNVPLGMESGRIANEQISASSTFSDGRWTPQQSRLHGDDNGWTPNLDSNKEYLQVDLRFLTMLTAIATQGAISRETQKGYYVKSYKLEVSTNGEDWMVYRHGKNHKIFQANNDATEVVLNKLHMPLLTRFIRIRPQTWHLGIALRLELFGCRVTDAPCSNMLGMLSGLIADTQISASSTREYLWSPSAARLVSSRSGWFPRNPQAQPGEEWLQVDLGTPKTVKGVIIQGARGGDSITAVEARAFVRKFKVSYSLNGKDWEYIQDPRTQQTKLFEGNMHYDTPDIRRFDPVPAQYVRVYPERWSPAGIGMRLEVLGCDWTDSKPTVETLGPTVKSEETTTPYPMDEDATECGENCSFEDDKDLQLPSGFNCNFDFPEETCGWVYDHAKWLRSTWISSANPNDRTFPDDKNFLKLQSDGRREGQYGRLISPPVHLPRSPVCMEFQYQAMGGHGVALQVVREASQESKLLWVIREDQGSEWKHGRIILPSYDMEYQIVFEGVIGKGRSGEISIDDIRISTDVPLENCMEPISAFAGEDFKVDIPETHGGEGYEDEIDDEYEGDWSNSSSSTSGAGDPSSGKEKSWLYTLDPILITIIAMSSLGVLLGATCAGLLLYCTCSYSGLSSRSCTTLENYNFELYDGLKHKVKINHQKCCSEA
UniProt P34152: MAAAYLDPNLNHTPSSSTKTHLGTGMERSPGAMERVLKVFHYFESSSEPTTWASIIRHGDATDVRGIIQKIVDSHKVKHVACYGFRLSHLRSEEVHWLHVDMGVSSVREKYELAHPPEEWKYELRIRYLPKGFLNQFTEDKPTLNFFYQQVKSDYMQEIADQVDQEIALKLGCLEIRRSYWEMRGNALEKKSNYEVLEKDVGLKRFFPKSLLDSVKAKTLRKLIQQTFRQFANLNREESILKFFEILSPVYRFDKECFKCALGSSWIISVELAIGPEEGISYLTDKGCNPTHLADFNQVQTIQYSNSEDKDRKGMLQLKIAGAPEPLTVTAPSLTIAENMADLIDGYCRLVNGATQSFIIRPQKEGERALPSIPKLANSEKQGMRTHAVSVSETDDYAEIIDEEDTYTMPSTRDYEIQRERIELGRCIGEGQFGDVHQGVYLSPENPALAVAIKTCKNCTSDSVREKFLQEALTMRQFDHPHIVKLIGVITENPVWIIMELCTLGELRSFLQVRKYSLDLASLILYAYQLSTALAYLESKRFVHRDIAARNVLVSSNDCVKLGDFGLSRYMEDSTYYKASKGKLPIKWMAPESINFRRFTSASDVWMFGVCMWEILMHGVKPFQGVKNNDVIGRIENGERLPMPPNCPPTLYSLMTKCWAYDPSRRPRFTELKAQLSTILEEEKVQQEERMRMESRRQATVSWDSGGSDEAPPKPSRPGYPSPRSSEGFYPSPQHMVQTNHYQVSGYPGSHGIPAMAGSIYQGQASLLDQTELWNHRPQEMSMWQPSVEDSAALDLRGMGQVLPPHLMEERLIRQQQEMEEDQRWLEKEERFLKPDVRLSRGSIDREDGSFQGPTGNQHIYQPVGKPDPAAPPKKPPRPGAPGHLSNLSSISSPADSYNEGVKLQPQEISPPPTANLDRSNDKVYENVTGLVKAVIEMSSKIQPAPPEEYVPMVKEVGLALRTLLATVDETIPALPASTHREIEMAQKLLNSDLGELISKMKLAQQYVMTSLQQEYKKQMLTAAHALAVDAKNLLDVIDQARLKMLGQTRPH

Key:
Assay in all cases: co-IP
[1] = target: neuropilin 2 (mouse (endogenous in mouse lung microvascular ECs)) (UniProt O35375)
[2] = target: focal adhesion kinase (mouse (endogenous in mouse lung microvascular ECs)) (UniProt P34152)
[3] = target: neuropilin 2 (mouse (endogenous in mouse lung microvascular ECs)) (UniProt O35375); remark: listed apart in the source

Measured: binding

B1: GTPase-activating protein p120RasGAP (protein, UniProt E9PYG6 1-1038)
chain: MMAAEAGSEEGGPATAGPGGGAATGSSAYSAACRVKLPAALPVAAAPCPGLADADLVAALGGGAASGSGFLGTGPVAGVLGGAALTGSAAAGVAGAAAAGPAGDVAFTKGTLSLPAETLGPGGGFPPLPPPPQLPPLGSGLGTVDEGDSLDGPEYEEEEVAIPLTAPPTNQWYHGKLDRTIAEERLRQAGKSGSYLIRESDRRPGSFVLSFLSQTNVVNHFRIIAMCGDYYIGGRRFSSLSDLIGYYSHVSCLLKGEKLLYPVAPPEPVEDRRRVRAILPYTKVPDTDEISFLKGDMFIVHNELEDGWMWVTNLRTDEQGLIVEDLVEEVGREEDPHEGKIWFHGKISKQEAYNLLMTVGQVCSFLVRPSDNTPGDYSLYFRTNENIQRFKICPTPNNQFMMGGRYYNSIGDIIDHYRKEQIVEGYYLKEPVPMQDQGQVLNDTVDGKEIYNTIRRKTKDAFYKNIVKKGYLLKKGKGKRWKNLYFILEGSDAQLIYFESEKRATKPKGLIDLSVCSVYVVHDSLFGRPNCFQIVVQHFSEEHYIFYFAGETPEQAEDWMKGLQAFCSLRKSSPGTSNKRLRQVSSLVLHIEEAHKLPVKHFTNPYCNIYLNSVQVAKTHAREGQNPVWSEEFVFDDLPPDINRFEITLSNKTKKSKDPDILFMRCQLSRLQKGHATDEWFLLSSHIPLKGIEPGSLRVRARYSMEKIMPEEEYSEFKELILQKELHVVYALSHVCGQDRTLLASILLKIFLHEKLESLLLCTLNDREISMEDEATTLFRATTLASTLMEQYMKATATQFVHHALKDSILKIMESKQSCELSPSKLEKNEDVNTNLAHLLSILSELVEKIFMASEILPPTLRYIYGCLQKSVQHKWPTNNTMRTRVVSGFVFLRLICPAILNPRMFNIISDSPSPIAARTLTLVAKSVQNLANLVEFGAKEPYMEGVNPFIKSNKHRMIMFLDELGNVPELPDTTEHSRTDLSRDLAALHEICVAHSDELRTLSNERGVQQHVLKKLLAITELLQQKQNQYTKTNDIR
binds: all assays above
